From patent US20050272647A1, “Arthrodial cartilage extracellular matrix degradation inhibitor” (priority 2002, published 2005)
At least one compound was matched to its structure with a doubt left.

Columns and labels:
[1] = test system: rabbit cartilage primary culture cells; assay: PG destruction inhibitory activity in rabbit cartilage primary culture cell (stimulation with IL-1); settings: 30 iM; human IL-1β 10 ng/ml, 48 hours
[2] = test system: rabbit knee articular cartilage primary culture cells; assay: PG destruction inhibitory activity in rabbit cartilage primary culture cell (stimulation with retinoic acid); settings: retinoic acid 1 μM, 48 hours

## Nc1ccccc1NC(=O)c1ccc(CNC(=O)OCc2cccnc2)cc1 [MS-27-275]
[1]
  PG degradation inhibition (%): 95%
[2]; 1 iM
  PG degradation inhibition (%): 52%
[2]; 10 iM
  PG degradation inhibition (%): 87%
